From patent publication US9314453B2, “Tetrahydropyridoethers for treatment of AMD” (KATAIRO GmbH, priority 2008, dated 2016)

Test system: RPE melanosomes
Assay: X-ray microanalysis of melanosomes within RPE cells
Type: in vivo, Cynomolgus monkey
Conditions: 24 mg/kg/day; versus untreated
Description: In order to investigate whether trace element concentration is altered by drug administration, X-ray microanalysis of melanosomes within RPE cells from untreated and drug treated monkeys was performed. In addition melanosomes within macrophages were also analysed.
The concentration of C, Na, P, S, Ca and Fe in RPE melanosomes or in melanosomes from macrophages after drug treatment are presented in atom % as detected by EDX. These findings were compared to the concentrations without treatment. A significant increase of Ca, Na and P was found in RPE melanosomes after treatment. (p=p−values from Student's T-test; n=number of measurements). The animal was treated with 24 mg Soraprazan/kg/day.

With `COCCO[C@@H]1c2ccn3c(C)c(C)nc3c2N[C@H](c2ccccc2)[C@H]1O` [Soraprazan, (7R,8R,9R)-2,3-Dimethyl-8-hydroxy-7-(2-methoxyethoxy)-9-phenyl-7,8,9,10-tetrahydro-imidazo[1,2-h][1,7]naphthyridine] the “Fe concentration in RPE melanosomes” value was “statistically insignificant decrease” and the “Na, P and Ca concentration in RPE melanosomes” value was “increase”.
